Reference: patent US20220324943A1
No constants are given. Whether binding was seen depends on the method and setting. Some results given as binding are weak or reduced against the parent protein; the word gives no strength. Tags and fused reporters may be left off the sequences shown.

By UniProt entry, the sequences of proteins in these tests, tags left out. Residues count along the entry.
UniProt P09038, residues 143-288: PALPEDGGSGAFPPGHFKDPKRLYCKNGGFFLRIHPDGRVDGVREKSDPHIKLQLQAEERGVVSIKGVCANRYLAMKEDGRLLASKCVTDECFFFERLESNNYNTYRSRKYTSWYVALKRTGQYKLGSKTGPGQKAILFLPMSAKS
UniProt P05230, residues 16-155: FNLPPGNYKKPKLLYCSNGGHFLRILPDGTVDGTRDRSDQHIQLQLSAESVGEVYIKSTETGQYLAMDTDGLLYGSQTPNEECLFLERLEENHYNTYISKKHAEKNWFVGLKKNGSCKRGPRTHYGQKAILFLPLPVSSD

How the values were obtained:
basic FGF [1] = target: basic FGF (UniProt P09038); assay: sensorgram (SPR by the legend, axis in nm); FGFR1-CCD injected over immobilized ligand, 600 s association, 600 s dissociation
acidic FGF [2] = target: acidic FGF (UniProt P05230); assay: as above
basic FGF [3] = target: basic FGF (UniProt P09038); assay: SPR, FGFR1-CCD injected over immobilized ligand
acidic FGF [4] = target: acidic FGF (UniProt P05230); assay: SPR, FGFR1-CCD injected over immobilized ligand

Measured: binding

B1: FGFR1-CCD fusion protein (receptor)
chain: RPSPTLPEQAQPWGAPVEVESFLVHPGDLLQLRCRLRDDVQSINWLRDGVQLAESNRTRITGEEVEVQDSVPADSGLYACVTSSPSGSDTTYFSVNVSDALPSSEDDDDDDDSSSEEKETDNTKPNPVAPYWTSPEKMEKKLHAVPAAKTVKFKCPSSGTPNPTLRWLKNGKEFKPDHRIGGYKVRYATGSIIMDSVVPSDKGNYTCIVENEYGSINHTYQLDVVERSPHRPILQAGLPANKTVALGSNVEFMCKVYSDPQPHIQWLKHIEVNGSKIGPDNLPYVQILKTAGVNTTDKEMEVLHLRNVSFEDAGEYTCLAGNSIGLSHHSAWLTVLEALEERPAVMLKEFMGYQGPPGPPGPPGIPGNHGNNGNNGATGHEGAKGEKGDKGDLGPRGERGQHGPKGEKGYPGIPGYCGPPGPPGPPGIPGNHGNNGNNGATGHEGAKGEKGDKGDLGPRGERGQHGPKGEKGYPGIPDYKDDDDKLQISSTVAAAHHHHHHV
binds: all assays above
